# Measured values from the supplement of paper PMC8728848.
# The list shows a part of the results.
# B1: Actd5 (Actinidia), P84527 (protein)
# chain: ISSCNGPCRDLNDCDGQLICIKGKCNDDPQVGTHICRGTTHSHQPGGCKPSGTLTCRGKSYPTYDCSPPVTSSTPAKLTNNDFSEGGDDGGPSECDESYHNNNERIVALSTGWYNGGSRCGKMIRITASNGKSVSAKVVDECDSRHGCDKEHAGQPPCRNNIVDGSNAVWSALGLDKNVGVVDITWSMA
# Legend:
# Experiment in all cases: glycan array binding signal (z-score within array); higher = stronger binding
# Conditions in all cases: glycan notation: IUPAC condensed, linker removed
# [1] = target: Gal(b1-4)GlcNAc(b1-6)Gal(b1-4)GlcNAc
# Procedure, shortened: (§1)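 Glycan array binding is given as a within-array Z-score, which can be read as non-binding when negative. The arrays, 3228 of them, came from the Consortium for Functional Glycomics database and were retained only where the protein sequence was available. Z-scores were averaged across arrays of the same protein sequence at different concentrations or buffers and across linkers.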
# [2] = target: Gal(b1-4)GlcNAc(b1-6)GalNAc
# Procedure, shortened: as §1
# [3] = target: Gal(b1-4)GlcNAc(b1-6)[Gal(b1-3)]GalNAc
# Procedure, shortened: as §1
# [4] = target: Gal(b1-4)GlcNAc(b1-6)[Gal(b1-4)GlcNAc(b1-3)]GalNAc
# Procedure, shortened: as §1
# [5] = target: Gal(b1-4)GlcNAc6P
# Procedure, shortened: as §1
# [6] = target: Gal(b1-6)Gal
# Procedure, shortened: as §1
# [7] = target: Gal3S(b1-3)GalNAc
# Procedure, shortened: as §1
# [8] = target: Gal3S(b1-3)GlcNAc
# Procedure, shortened: as §1
# [9] = target: Gal3S(b1-3)[Fuc(a1-4)]GlcNAc
# Procedure, shortened: as §1
# [10] = target: Gal3S(b1-4)Glc
# Procedure, shortened: as §1
# [11] = target: Gal3S(b1-4)Glc6S
# Procedure, shortened: as §1
# [12] = target: Gal3S(b1-4)GlcNAc
# Procedure, shortened: as §1
# [13] = target: Gal3S(b1-4)[Fuc(a1-3)]Glc6S
# Procedure, shortened: as §1
# [14] = target: Gal3S(b1-4)[Fuc(a1-3)]GlcNAc
# Procedure, shortened: as §1
# [15] = target: Gal3S(b1-4)[Fuc(a1-3)]GlcNAc6S
# Procedure, shortened: as §1
# [16] = target: Gal3S4S(b1-4)GlcNAc
# Procedure, shortened: as §1
# [17] = target: Gal3S6S(b1-4)GlcNAc
# Procedure, shortened: as §1
# [18] = target: Gal3S6S(b1-4)GlcNAc6S
# Procedure, shortened: as §1
# [19] = target: Gal4S(b1-4)GlcNAc
# Procedure, shortened: as §1
# [20] = target: Gal4S6S(b1-4)GlcNAc
# Procedure, shortened: as §1
# [21] = target: Gal6P(b1-4)GlcNAc
# Procedure, shortened: as §1
# [22] = target: Gal6S(b1-3)GlcNAc
# Procedure, shortened: as §1
# [23] = target: Gal6S(b1-3)GlcNAc6S
# Procedure, shortened: as §1
binder,measurement,setting,value
B1,glycan array binding signal (z-score),[1],-0.054
same,glycan array binding signal (z-score),[2],0.07
same,glycan array binding signal (z-score),[3],-0.525
same,glycan array binding signal (z-score),[4],-0.2
same,glycan array binding signal (z-score),[5],-1.05
same,glycan array binding signal (z-score),[6],0.111
same,glycan array binding signal (z-score),[7],-0.462
same,glycan array binding signal (z-score),[8],-0.689
same,glycan array binding signal (z-score),[9],-0.284
same,glycan array binding signal (z-score),[10],-0.122
same,glycan array binding signal (z-score),[11],0.439
same,glycan array binding signal (z-score),[12],-0.351
same,glycan array binding signal (z-score),[13],-0.26
same,glycan array binding signal (z-score),[14],-0.319
same,glycan array binding signal (z-score),[15],0.505
same,glycan array binding signal (z-score),[16],-0.195
same,glycan array binding signal (z-score),[17],0.094
same,glycan array binding signal (z-score),[18],-0.252
same,glycan array binding signal (z-score),[19],-0.749
same,glycan array binding signal (z-score),[20],-0.468
same,glycan array binding signal (z-score),[21],0.385
same,glycan array binding signal (z-score),[22],-0.775
same,glycan array binding signal (z-score),[23],-0.772

# Two entries picked at random from those above:
binder,measurement,setting,value
B1,glycan array binding signal (z-score),[20],-0.468
same,glycan array binding signal (z-score),[7],-0.462
